Publication PMC4931565, “Higher‐order assemblies of oligomeric cargo receptor complexes form the membrane scaffold of the Cvt vesicle” (EMBO Reports, 2016)
These are yes or no findings as the source states them, for the method shown. Where a sequence is shown, tags or fusion partners need not be part of it.

Target: T1, MBP-Atg19 (Saccharomyces cerevisiae Atg19 with N-terminal MBP) (S. cerevisiae), P35193
T1 chain: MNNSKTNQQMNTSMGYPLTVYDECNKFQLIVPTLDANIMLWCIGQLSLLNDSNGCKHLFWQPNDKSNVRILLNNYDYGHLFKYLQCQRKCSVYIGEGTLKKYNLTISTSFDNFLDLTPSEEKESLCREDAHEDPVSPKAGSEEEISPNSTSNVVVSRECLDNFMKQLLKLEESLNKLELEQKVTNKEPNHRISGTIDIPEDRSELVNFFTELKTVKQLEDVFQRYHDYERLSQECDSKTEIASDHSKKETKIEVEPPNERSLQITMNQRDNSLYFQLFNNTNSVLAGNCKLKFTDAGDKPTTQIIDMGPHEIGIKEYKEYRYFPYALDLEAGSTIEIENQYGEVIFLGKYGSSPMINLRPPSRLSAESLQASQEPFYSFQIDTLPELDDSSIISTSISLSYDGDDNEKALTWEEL
Assay: pull-down; purified MBP-Atg19 or MBP (1 uM) mixed with his-Ams1 (1 uM), mApe1 (1 uM) or prApe1 (0.7 uM) overnight at 4 C in 50 mM Tris-HCl pH 7.5, 25 mM NaCl, 5 mM MgCl2, 1 mM DTT, 0.2% NP-40; captured on amylose beads; SDS-PAGE, Coomassie; both purified
Conditions: remark: other sources report otherwise

binding: no binding (tested: 1 uM each)
B1: Saccharomyces cerevisiae mApe1 (mature Ape1 lacking the N-terminal propeptide), P14904 46-514 (natural protein)
chain: EHNYEDIAQEFIDFIYKNPTTYHVVSFFAELLDKHNFKYLSEKSNWQDSIGEDGGKFYTIRNGTNLSAFILGKNWRAEKGVGVIGSHVDALTVKLKPVSFKDTAEGYGRIAVAPYGGTLNELWLDRDLGIGGRLLYKKKGTNEIKSALVDSTPLPVCRIPSLAPHFGKPAEGPFDKEDQTIPVIGFPTPDEEGNEPPTDDEKKSPLFGKHCIHLLRYVAKLAGVEVSELIQMDLDLFDVQKGTIGGIGKHFLFAPRLDDRLCSFAAMIALICYAKDVNTEESDLFSTVTLYDNEEIGSLTRQGAKGGLLESVVERSSSAFTKKPVDLHTVWANSIILSADVNHLYNPNFPEVYLKNHFPVPNVGITLSLDPNGHMATDVVGTALVEELARRNGDKVQYFQIKNNSRSGGTIGPSLASQTGARTIDLGIAQLSMHSIRAATGSKDVGLGVKFFNGFFKHWRSVYDEFGEL
